In assay [1] the target is VEGFR1 (human (endogenous in GIST T-1R and GIST 430)) (UniProt P17948). Briefly: co-IP; GIST 430 whole cell lysate in TEB buffer (50 mM Tris-HCl pH 7.5, 150 mM NaCl, 1% NP-40, 10% glycerol); endogenous VEGFR1 precipitated with anti-VEGFR1 antibody overnight at +4 °C, protein A and G Sepharose beads; blot for FGFR1 or FGFR2.
Assay [2] shares this target. Description: co-IP; GIST T-1R whole cell lysate in TEB buffer (50 mM Tris-HCl pH 7.5, 150 mM NaCl, 1% NP-40, 10% glycerol); endogenous VEGFR1 precipitated with anti-VEGFR1 antibody overnight at +4 °C, protein A and G Sepharose beads; blot for FGFR1 or FGFR2.

Amino acid sequences for entries named in this document (tags omitted). Residues count along the entry.
UniProt P17948, residues 27-1338: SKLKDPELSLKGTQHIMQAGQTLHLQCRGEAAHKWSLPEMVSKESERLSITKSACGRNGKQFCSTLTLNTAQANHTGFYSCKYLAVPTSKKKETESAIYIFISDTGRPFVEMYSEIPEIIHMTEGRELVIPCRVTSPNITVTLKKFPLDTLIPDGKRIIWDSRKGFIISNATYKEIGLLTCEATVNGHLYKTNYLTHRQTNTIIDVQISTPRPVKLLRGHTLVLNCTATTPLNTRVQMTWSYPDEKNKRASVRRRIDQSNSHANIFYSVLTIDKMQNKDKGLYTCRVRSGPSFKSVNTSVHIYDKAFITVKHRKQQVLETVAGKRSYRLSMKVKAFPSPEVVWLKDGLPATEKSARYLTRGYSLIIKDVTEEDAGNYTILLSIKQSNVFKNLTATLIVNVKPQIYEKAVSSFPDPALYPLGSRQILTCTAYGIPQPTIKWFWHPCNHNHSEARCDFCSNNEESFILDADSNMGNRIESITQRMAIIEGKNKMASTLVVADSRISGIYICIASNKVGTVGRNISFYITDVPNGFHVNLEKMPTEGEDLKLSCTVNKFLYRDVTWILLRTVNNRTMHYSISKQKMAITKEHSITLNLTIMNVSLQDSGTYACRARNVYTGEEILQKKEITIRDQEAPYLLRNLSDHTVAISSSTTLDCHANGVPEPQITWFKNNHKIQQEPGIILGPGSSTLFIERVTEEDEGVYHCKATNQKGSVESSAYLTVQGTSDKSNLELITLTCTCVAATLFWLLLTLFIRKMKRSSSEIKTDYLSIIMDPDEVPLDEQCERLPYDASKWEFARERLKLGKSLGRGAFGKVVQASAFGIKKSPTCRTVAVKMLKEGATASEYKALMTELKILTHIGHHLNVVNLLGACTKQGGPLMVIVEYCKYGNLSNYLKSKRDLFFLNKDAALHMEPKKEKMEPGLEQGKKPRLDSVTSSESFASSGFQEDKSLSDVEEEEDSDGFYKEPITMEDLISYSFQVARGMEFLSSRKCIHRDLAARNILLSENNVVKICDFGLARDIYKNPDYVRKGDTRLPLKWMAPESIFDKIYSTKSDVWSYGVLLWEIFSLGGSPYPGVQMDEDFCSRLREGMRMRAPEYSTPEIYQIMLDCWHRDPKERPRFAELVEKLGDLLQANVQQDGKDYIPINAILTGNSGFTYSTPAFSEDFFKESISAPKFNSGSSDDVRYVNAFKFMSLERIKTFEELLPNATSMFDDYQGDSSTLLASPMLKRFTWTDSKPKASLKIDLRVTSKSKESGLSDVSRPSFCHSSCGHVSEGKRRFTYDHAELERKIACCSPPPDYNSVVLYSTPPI
UniProt P21802, residues 22-821: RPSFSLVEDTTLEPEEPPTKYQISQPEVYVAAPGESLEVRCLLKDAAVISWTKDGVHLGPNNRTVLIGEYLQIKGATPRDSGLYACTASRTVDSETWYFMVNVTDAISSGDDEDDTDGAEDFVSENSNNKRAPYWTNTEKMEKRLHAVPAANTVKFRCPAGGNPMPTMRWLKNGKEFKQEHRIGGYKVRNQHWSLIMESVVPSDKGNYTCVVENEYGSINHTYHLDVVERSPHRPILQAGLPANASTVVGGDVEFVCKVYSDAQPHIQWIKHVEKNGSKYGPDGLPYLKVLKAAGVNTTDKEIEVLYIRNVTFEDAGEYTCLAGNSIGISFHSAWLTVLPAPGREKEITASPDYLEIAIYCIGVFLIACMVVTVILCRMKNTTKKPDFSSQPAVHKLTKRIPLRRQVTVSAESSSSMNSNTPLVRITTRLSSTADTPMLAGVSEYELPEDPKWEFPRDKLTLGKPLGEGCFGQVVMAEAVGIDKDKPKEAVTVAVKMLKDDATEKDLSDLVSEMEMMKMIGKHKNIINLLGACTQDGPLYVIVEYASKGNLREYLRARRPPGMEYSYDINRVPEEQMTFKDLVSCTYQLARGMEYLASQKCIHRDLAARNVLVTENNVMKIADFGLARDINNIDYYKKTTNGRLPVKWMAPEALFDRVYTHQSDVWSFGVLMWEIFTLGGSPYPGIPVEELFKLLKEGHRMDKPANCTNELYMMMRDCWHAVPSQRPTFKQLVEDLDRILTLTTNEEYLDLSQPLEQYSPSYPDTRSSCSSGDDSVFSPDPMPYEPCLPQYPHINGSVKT
UniProt P11362, residues 22-822: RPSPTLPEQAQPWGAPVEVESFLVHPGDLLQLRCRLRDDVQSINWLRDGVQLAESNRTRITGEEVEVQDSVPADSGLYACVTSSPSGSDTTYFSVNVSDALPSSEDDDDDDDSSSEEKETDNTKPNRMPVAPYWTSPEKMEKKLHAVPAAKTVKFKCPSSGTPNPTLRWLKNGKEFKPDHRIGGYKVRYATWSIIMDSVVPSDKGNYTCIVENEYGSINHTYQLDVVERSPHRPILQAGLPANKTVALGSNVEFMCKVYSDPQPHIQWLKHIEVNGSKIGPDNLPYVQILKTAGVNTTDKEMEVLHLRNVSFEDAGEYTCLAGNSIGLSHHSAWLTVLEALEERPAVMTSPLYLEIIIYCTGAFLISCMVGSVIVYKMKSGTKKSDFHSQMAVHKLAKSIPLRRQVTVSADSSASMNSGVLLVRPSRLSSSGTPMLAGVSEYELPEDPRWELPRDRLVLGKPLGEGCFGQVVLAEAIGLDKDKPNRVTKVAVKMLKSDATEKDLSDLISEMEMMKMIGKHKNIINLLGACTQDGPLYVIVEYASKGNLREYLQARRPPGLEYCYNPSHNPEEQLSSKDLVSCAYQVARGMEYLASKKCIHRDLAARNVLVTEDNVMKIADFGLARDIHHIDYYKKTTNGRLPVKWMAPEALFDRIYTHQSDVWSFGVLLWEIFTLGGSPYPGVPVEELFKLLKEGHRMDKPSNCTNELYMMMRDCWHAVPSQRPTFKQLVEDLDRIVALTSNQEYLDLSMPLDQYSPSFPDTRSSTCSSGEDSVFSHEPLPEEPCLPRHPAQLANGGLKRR

These are yes or no findings as the source states them, for the method shown. In cells and extracts the contact can be indirect. Some binding calls cover weakened binding; strength is not graded here.

Consider “FGFR2 (from UniProt P21802 22-821) (receptor)”, for which the binding entry in assay [1] is given as “no binding (condition: in GIST 430 cells)”; in assay [2], “binds”.
As to “FGFR1 (from UniProt P11362 22-822) (receptor)”, the binding result is “no binding (condition: in GIST 430 cells)” in assay [1] and “binds” in assay [2].
